Measured values from patent publication US20230146455A1 (Yuyu Pharma, Inc., priority 2020, published 2023).

Assay: general procedure: Fmoc solid-phase peptide synthesis
Details: whole synthesis

| Substance | purity (crude or final not stated) [%] |
| --- | --- |
| O*GQLGLAGP(isopropylethyl) | 98.2 |
| O*GQLGLAGP(azetidine) | 97.9 |
| O*GQLGLAGP(dimethyl) | 96.7 |
| O*GQLGLAGP | 98.7 |
| O*GQLGLAGP(diethyl) | 97.2 |
| O*GQLGLAGPK(NH-PEG1-NH-Boc) [YDE-093] | 99.1 |
| O*GQLGLAGP(pyrroidine) | 97.2 |
| O*GQLGLAGPK(NH-PEG1-NH-Cbz) [YDE-096] | 95.4 |

Assay: peptide made by a vendor (Fmoc solid-phase peptide synthesis)
Details: whole synthesis

| Substance | purity (crude or final not stated) [%] |
| --- | --- |
| O*GQDGLA | 97.4 |
| O*GQLGLAGP(methylethyl) | 97.4 |
